In publication PMC7819943, “Rice protein-binding microarrays: a tool to detect cis-acting elements near promoter regions in rice”:
Some of the results follow.

Sequences of proteins named here, by UniProt entry; tags and fusion partners are left off.
UniProt Q0JBA9, entry or part of it: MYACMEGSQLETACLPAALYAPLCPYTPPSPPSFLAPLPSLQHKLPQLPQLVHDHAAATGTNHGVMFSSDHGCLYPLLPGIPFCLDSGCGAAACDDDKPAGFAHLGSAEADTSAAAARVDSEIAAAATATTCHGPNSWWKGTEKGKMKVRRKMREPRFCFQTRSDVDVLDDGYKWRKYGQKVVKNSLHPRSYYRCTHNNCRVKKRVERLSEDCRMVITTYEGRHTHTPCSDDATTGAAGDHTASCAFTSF

What follows are sequences tested against OsWRKY34 (Oryza sativa, UniProt Q0JBA9 1-250) (assay: protein-binding microarray (RPBM); PBS, 2% BSA, 51.3 ng/ul salmon testes DNA, 50 uM zinc acetate, 200 nM TF, 25 C, 1 h; high values mean tight binding). Conditions: protein: recombinant; tags: N-terminal polyhistidine and DsRed monomer fusion (pET32a); label: CyDye5-dUTP incorporated in the synthesized complementary strand; 3' TTTTT single-stranded linker to array surface; dsDNA, one strand shown.
Procedure, shortened: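 An Axon 4000B scanner gave the binding signal as per-feature fluorescence intensity in arbitrary units. This followed washing of a custom Agilent array that had been incubated for 1 h at 25 °C with 200 nM protein in PBS, 2% BSA, salmon testes DNA and 50 µM zinc acetate. The proteins were transcription factors fused at the N-terminus to polyhistidine and DsRed, expressed in E. coli BL21-CodonPlus and purified on Ni–NTA.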

Row | Sequence | binding signal
1 | CTTCTTCCGTGGTTTACTGCTTCCTCTTGTGCTACTTCTTCGGAGTCACCTAGTGCAG | 11400 fluorescence intensity (a.u.)
2 | TTCTGTGTGATTATATGAAGCTAGGGTCTGACCGCCTCACCGGAGTCACCTAGTGCAG | 11300 fluorescence intensity (a.u.)
3 | GCGCCCGTGCGCGCATCCTCTCTCTCTCTCACACACACACCGGAGTCACCTAGTGCAG | 8600 fluorescence intensity (a.u.)
4 | TTGGCTATTTGGCAGTTTCTCCACGAGCACCTCCAATCTCCGGAGTCACCTAGTGCAG | 8470 fluorescence intensity (a.u.)
5 | CCCACGTTTGCCTTCTACTGTACGTCACTCCGTACTCCTCCGGAGTCACCTAGTGCAG | 8310 fluorescence intensity (a.u.)
6 | ATATCACTCCACAACACATGCAAGTTCAAATTTGACTTACCGGAGTCACCTAGTGCAG | 11200 fluorescence intensity (a.u.)
7 | TCGTGTTTAGCTAATTAGTGGTTTGTGTCCACGTTAGTTTCGGAGTCACCTAGTGCAG | 11300 fluorescence intensity (a.u.)
8 | ATTGATGGGGTAAATGGGCTGGACTTCGAGCGCAAAAAAACGGAGTCACCTAGTGCAG | 10000 fluorescence intensity (a.u.)
9 | GCAGCGCATCCGCGCCTCGCCTTGCTTGATTTGCCTCGCCCGGAGTCACCTAGTGCAG | 10700 fluorescence intensity (a.u.)
10 | GGTTTCGATAATATTCGTTTTCGTTTTCATTTCCGGGGTTCGGAGTCACCTAGTGCAG | 9190 fluorescence intensity (a.u.)
11 | ACGAAGGGAGTATTATTCTACGTTGCTATATTTGTTTTCTCGGAGTCACCTAGTGCAG | 9610 fluorescence intensity (a.u.)
12 | AATCCTTCAATTGTTTCTATGTTTTTCTATTACCAAGTTTCGGAGTCACCTAGTGCAG | 10200 fluorescence intensity (a.u.)
13 | ATCTAACCCGGCTTAAACTGTAATAAACCATGCTCCTTATCGGAGTCACCTAGTGCAG | 8850 fluorescence intensity (a.u.)
14 | GTGTGTGTTTTTGCAAAAGTTTTCTATAGAAAAGTTACATCGGAGTCACCTAGTGCAG | 8210 fluorescence intensity (a.u.)
15 | CTTTTTTCCATCTCTCCACTGAGACCGGTGACACAAATCTCGGAGTCACCTAGTGCAG | 8100 fluorescence intensity (a.u.)
16 | GATATTTCTCTTTATCATGGTCACCGTTCATCATGAGCAACGGAGTCACCTAGTGCAG | 8970 fluorescence intensity (a.u.)
17 | GCTTATAGAGGTAGGGTATGTGTGTATGTGTTTATAGACGCGGAGTCACCTAGTGCAG | 8610 fluorescence intensity (a.u.)
18 | TGTCCAAATCCACCTACGCGCCCCGCCCTCGAACGCGCACCGGAGTCACCTAGTGCAG | 9280 fluorescence intensity (a.u.)
19 | TATCCAGCACCTTGTAAGTTTTCAATCCCAAATTATATGTCGGAGTCACCTAGTGCAG | 9350 fluorescence intensity (a.u.)
20 | CTCGGAATATGGGTGGTGATATATCAGGATGGTCGGCAAGCGGAGTCACCTAGTGCAG | 8970 fluorescence intensity (a.u.)
21 | TCCAGTTGGGCGGTTGAAGGTTTTTGTTTATGACTTGCCACGGAGTCACCTAGTGCAG | 11200 fluorescence intensity (a.u.)

Four entries from above, as tab-separated lines:
Row	Sequence	binding signal
1	CTTCTTCCGTGGTTTACTGCTTCCTCTTGTGCTACTTCTTCGGAGTCACCTAGTGCAG	11400 fluorescence intensity (a.u.)
2	TTCTGTGTGATTATATGAAGCTAGGGTCTGACCGCCTCACCGGAGTCACCTAGTGCAG	11300 fluorescence intensity (a.u.)
9	GCAGCGCATCCGCGCCTCGCCTTGCTTGATTTGCCTCGCCCGGAGTCACCTAGTGCAG	10700 fluorescence intensity (a.u.)
21	TCCAGTTGGGCGGTTGAAGGTTTTTGTTTATGACTTGCCACGGAGTCACCTAGTGCAG	11200 fluorescence intensity (a.u.)

(next part)

Row | Sequence | binding signal
22 | GTACAAGAGTCCATAATATGCTCCATGGAAACGCTGAAAACGGAGTCACCTAGTGCAG | 8480 fluorescence intensity (a.u.)
23 | AAATTCACTCTCCGGCCCATTTCAACTGCATTTTCGGCCTCGGAGTCACCTAGTGCAG | 8440 fluorescence intensity (a.u.)
24 | ATCTGTTGGTAGATGGGCTGGGGATGATAGTTGCTCATCACGGAGTCACCTAGTGCAG | 8420 fluorescence intensity (a.u.)
25 | TGTGTTTGTGCGATGATCATCTTTCTGTTCATCCTCTTGTCGGAGTCACCTAGTGCAG | 9400 fluorescence intensity (a.u.)
26 | GTTTTGTGATCATTTATTTGGCTAATTTGCGATGCTTCACCGGAGTCACCTAGTGCAG | 9130 fluorescence intensity (a.u.)
27 | AGACGGAGGCCTGTTTTGTCCACTGCACACTTCACCATTCCGGAGTCACCTAGTGCAG | 8650 fluorescence intensity (a.u.)
28 | GACGACCTTGGCACCCAGCTTCCGTCACTCGCTCGCCGCGCGGAGTCACCTAGTGCAG | 8720 fluorescence intensity (a.u.)
29 | CGATCTCGTGTTCGTCGTCGTCGTTCTTGTCGATCTCTGTCGGAGTCACCTAGTGCAG | 13200 fluorescence intensity (a.u.)
30 | GCACTTATTTTCCCGCGCTACATGTTGTACGTACTCGGTTCGGAGTCACCTAGTGCAG | 9590 fluorescence intensity (a.u.)
31 | AATTTTTTTAATCCACATGACAACATTGTCTTGCTATGCCCGGAGTCACCTAGTGCAG | 8390 fluorescence intensity (a.u.)
32 | ATCGGTCTTTTATCTTTTCTGCCGATCGGTCTTTTGTCTTCGGAGTCACCTAGTGCAG | 11000 fluorescence intensity (a.u.)
33 | TCATCTGGCATCCGGCTGTCACGTTTTCCCGTTCGCTACACGGAGTCACCTAGTGCAG | 8680 fluorescence intensity (a.u.)
34 | GAGGTTGATAGTACCTTCATCTTGGATTTCTTGGCCTGCACGGAGTCACCTAGTGCAG | 8760 fluorescence intensity (a.u.)
35 | ATATTTCTCTACAGCTACTTTTCTTCGAACAAGAAATTATCGGAGTCACCTAGTGCAG | 8170 fluorescence intensity (a.u.)
36 | CAAGTTTGTTGGGCCTCGTCTCCGAATCTATCACGAATTTCGGAGTCACCTAGTGCAG | 9230 fluorescence intensity (a.u.)
37 | GAGGTAGGGAGAGGTTTCGTTAGGGTTTCGGGCGGGGATGCGGAGTCACCTAGTGCAG | 19900 fluorescence intensity (a.u.)
38 | ACTACTACCAGTCTATACCAGTGTTCTTCCACGTTGCTACCGGAGTCACCTAGTGCAG | 8370 fluorescence intensity (a.u.)
39 | CTTGGTTATCTTTAATATTACACTTTGATGGTTAACTTGTCGGAGTCACCTAGTGCAG | 8480 fluorescence intensity (a.u.)
40 | TCCATTGAACTGATATGCTACACTGCTGTCTCTAATAGTGCGGAGTCACCTAGTGCAG | 8480 fluorescence intensity (a.u.)
41 | TCTCCTCTAATTCTTGCGTTTTTCCTGTGATCCAATCAAACGGAGTCACCTAGTGCAG | 8720 fluorescence intensity (a.u.)
42 | CTTGGGTTGGGCGGGAACTTGGGGAGGAATTATGGACTATCGGAGTCACCTAGTGCAG | 16800 fluorescence intensity (a.u.)
